The record followed here is article PMC5996148.

Test systems include LOC554203 (human); LOC554207 (human); LOC57228 (human); LOC645676 (human); LOC90925 (human); LOC94431 (human); LOH12CR1 (human); LONRF2 (human); LPAL2 (human); LPXN (human).
What all share (assay): protein microarray (ProtoArray v5.0), streptavidin-Alexa Fluor 647
Conditions in all cases: 3'-biotin; 20 mM Tris (pH 7.5), 5 mM MgCl2, 100 mM KCl, 0.1% Tween-20, A/T-rich and random oligonucleotide blockers; temperature not stated; high values mean tight binding

This is one part of the list.

As for “GGGAGGCTGAGGCAGG [G4-1 biotinylated (PQS2)]”, the binding signal is -0.359 z-score in the assay with LOC554203 (human); -0.326 z-score in the assay with LOC554207 (human); 3.31 z-score with LOC57228 (human); -0.247 z-score in the assay on LOC645676 (human); -0.302 z-score with LOC90925 (human); -0.322 z-score in the assay on LOC94431 (human). Further, the binding signal in the assay with LOH12CR1 (human) is -0.343 z-score; with LONRF2 (human), -0.318 z-score; in the assay with LPAL2 (human), -0.276 z-score; in the assay on LPXN (human) it was -0.345 z-score.
